# Measured values reported in PubChem BioAssay AID2685 (National Center for Advancing Translational Sciences (NCATS), 2010).
# The other results are listed elsewhere or left out. The main result of the screen is listed elsewhere. These columns were measured beside it and carry no call. The list favours compounds with an active or inconclusive main result. Words in brackets tell the shape of the fitted curve; partial curves, single points and poor fits give uncertain potencies.
# Assay: qHTS Assay for Lipid Storage Modulators in Drosophila S3 Cells;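 for cell number change: cells counted by Cell Tracker Red CMTPX staining in the red channel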
# Conditions: BODIPY lipid droplet fluorescence, 18-24 h; for cell number change: measured here: cell count max response, cells fed with added oleic acid
# In short: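 Laser-scanning cytometry quantifies lipid droplet accumulation (500–530 nm total intensity; droplet/cell object ratio) in oleic acid-fed (400 uM added) Drosophila S3 cells treated with a concentration series. 20 uM Triacsin C defined 100% inhibition.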
# [1] = measured here: cell number channel AC50, cells fed with added oleic acid
# [2] = measured here: lipid fluorescence (Fed channel) AC50, cells fed with added oleic acid
Compound,cell number change,AC50 [1],AC50 [2]
Clc1ccc(Cn2cc(/C=N/n3cnnc3)c3ccccc32)cc1,-88.8%,"16.4 µM [falling, partial curve]","3.66 µM [rising, partial curve, poor fit]"
Cc1csc(=O)n1CC(=O)OCC(=O)Nc1ccccc1C(C)C,-9.2%,–,"13 µM [falling, partial curve, poor fit]"
CCOc1cc(NS(=O)(=O)c2ccc(NC(C)=O)cc2)c(OCC)cc1NC(=O)C(C)C,-10.1%,–,"2.31 µM [rising, partial curve]"
Cc1ccc(CSC2=NCCN2C(=O)C(C)Oc2ccccc2)cc1 (centres undefined),6.73%,–,–
Cc1cc(C)n(CCc2nc(-c3ccco3)cs2)n1,–,"0.206 µM [rising, full curve]",–
O=C(COC(=O)c1cc2ccccc2cc1O)Nc1cccnc1Cl,-40.5%,"29.1 µM [falling, single point]","7.31 µM [rising, partial curve, poor fit]"
Cc1ccc(/C=N/NC(=O)c2ccc3nc[nH]c3c2)o1,-4.62%,–,"0.00461 µM [falling, full curve, poor fit]"
CCCCn1c(N)c(N(CCC(C)C)C(=O)c2ccccc2-n2cnnn2)c(=O)[nH]c1=O,6.43%,–,–
CCN(CC)CCNC(=O)C(=O)NCC1OCCN1S(=O)(=O)c1ccc2c(c1)OCCO2 (centres undefined),-69.6%,"29.1 µM [falling, single point]","29.1 µM [falling, partial curve, poor fit]"
COc1ccc2nc(SCC(=O)NCCc3ccccc3)[nH]c2c1,-2.87%,–,"13 µM [falling, partial curve, poor fit]"
CCCC(=O)Nc1cc(=O)n(C)c(=O)n1C,12.4%,–,–
O=C(CCCOc1ccc(Cl)cc1Cl)N1CCN(c2ccccn2)CC1,-18.8%,–,"0.13 µM [rising, full curve, poor fit]"
COC(=O)c1sccc1NS(=O)(=O)c1ccc(OC)cc1,24.5%,"0.00411 µM [rising, full curve, poor fit]",–
O=C1c2ccccc2C(Nc2ccc(S(=O)(=O)N3CCCCCC3)cc2)N1c1ccccn1 (centres undefined),-35.9%,"29.1 µM [falling, single point]","2.31 µM [rising, single point]"
O=C(NC(c1ccccc1)c1ccccc1)c1ccc(=O)[nH]n1,-22.1%,"4.11 µM [falling, full curve, poor fit]","3.66 µM [falling, single point]"
Cc1ccsc1C(=O)N1CC=C(c2ccccc2)CC1,–,"6.51 µM [rising, single point]",–
COc1ccc(N2CCN(C(=O)COC(=O)CCOc3ccccc3C)CC2)cc1,10.2%,–,"0.291 µM [falling, single point]"
COc1ccc(NC(C)=O)cc1NC(=O)CN1CCN(C2c3ccccc3-c3ccccc32)CC1,-35.4%,"3.26 µM [falling, partial curve]","16.4 µM [falling, single point]"
CSc1cccc(NC(=O)COc2ccccc2)c1,35.9%,"10.3 µM [rising, single point]",–
COc1ccc(-c2csc(NC(=O)CN3C(=O)C4CCCCC4C3=O)n2)cc1OC (centres undefined),1.53%,"7.31 µM [rising, single point]",–
COc1ccc(NC(=O)COc2ccccc2C)cc1S(=O)(=O)N1CCCCC1,–,"3.66 µM [rising, partial curve]",–

Compound,cell number change,AC50 [1],AC50 [2]
CCOC(=O)CSc1nc(-c2cccs2)nc2c1c(=O)n(C)c(=O)n2C,17.3%,–,"6.51 µM [falling, single point]"
Cc1cc(C)nc(SCCn2c(N3CCCCC3)nc3c2c(=O)n(C)c(=O)n3C)n1,16.6%,–,"6.51 µM [rising, single point]"
CC1(c2ccccc2)CC(C)(C)N(C(=O)C2CCCO2)c2ccccc21 (centres undefined),135%,"16.4 µM [rising, partial curve]","6.51 µM [rising, partial curve, poor fit]"
CC1(c2ccccc2)CC(C)(C)N(C(N)=O)c2ccccc21 (centres undefined),-14.8%,–,–
Cc1noc(C)c1COc1ccccc1C(=O)NNC(=O)c1ccccc1F,-2.48%,–,"0.206 µM [rising, full curve, poor fit]"
O=C(COC(=O)c1cccnc1Cl)NCc1ccco1,-43.3%,"0.164 µM [falling, full curve]",–
CCC(C)(C)NC(=O)CN(C(=O)C(=O)Nc1ccc2c(c1)OCCO2)C(C)(C)CC,-9.26%,–,"6.51 µM [falling, single point]"
CCc1nnc(NC(=O)CSc2nnc(-c3cc4ccccc4cc3O)n2CC)s1,-9.65%,"0.0164 µM [rising, full curve, poor fit]",–
Cc1nn(CC(=O)Nc2ccc(Cl)c(S(=O)(=O)N(C)C)c2)c(C)c1[N+](=O)[O-],–,–,"1.64 µM [falling, partial curve]"
CC1CCCC(C)N1C(=O)COC(=O)Cc1ccc(F)cc1 (centres undefined),3.6%,–,–
C=C[C@]1(C)C[C@H]1[C@H](NP(=O)(c1ccccc1)c1ccccc1)c1ccccc1,-10.7%,–,–
COc1ccccc1OCC(=O)Nc1ccc(S(=O)(=O)N2CCOCC2)cc1,-23.7%,–,"5.62 µM [rising, single point]"
CC1(C)Oc2ccc(C(=O)NN)cc2NC1=O,-12.1%,–,"1.64 µM [falling, partial curve, poor fit]"
O=S(=O)([O-])C(c1ccccc1)[n+]1ccccc1 (centres undefined),10.2%,–,"13 µM [rising, partial curve, poor fit]"
Cc1cc(C)cc(NC(=O)Nc2c(Br)cnn2C)c1,0.477%,–,"0.82 µM [falling, full curve, poor fit]"
O=C(NC1CC(=O)c2sccc21)c1cccc(C(F)(F)F)c1 (centres undefined),31.3%,"35.5 µM [rising, single point]","17.8 µM [rising, single point]"
COc1cccc(/C=C/C(=O)OCC(=O)Nc2cccc(S(=O)(=O)N3CCOCC3)c2)c1OC,47.6%,–,"18.4 µM [rising, single point]"
OCc1cn(-c2ccccc2)nc1-c1ccco1,102%,"29.1 µM [rising, single point]","0.731 µM [rising, partial curve, poor fit]"
CCN1C(=NCc2ccco2)N[C@@H](c2cccc(F)c2)C(C(=O)OC)=C1C,15.3%,–,–
COC(=O)COc1cccc(-n2cnnn2)c1,2.47%,–,"4.11 µM [falling, single point]"
COc1ccccc1C(=O)NCCSCc1ccccc1Cl,-22.8%,–,–

# Two successive entries out of the list so far:
Compound,cell number change,AC50 [1],AC50 [2]
Cc1ccc(/C=N/NC(=O)c2ccc3nc[nH]c3c2)o1,-4.62%,–,"0.00461 µM [falling, full curve, poor fit]"
CCCCn1c(N)c(N(CCC(C)C)C(=O)c2ccccc2-n2cnnn2)c(=O)[nH]c1=O,6.43%,–,–

# More structures:

Compound,cell number change,AC50 [1],AC50 [2]
CC(C)(C)c1ccc(-c2cc(N)n[nH]2)cc1,-1.84%,–,"6.51 µM [rising, partial curve, poor fit]"
Cc1[nH]c2ccc(-c3nnc(SCC(=O)NCc4ccco4)n3Cc3ccccc3)cc2c1C,-19.6%,–,"20.6 µM [falling, single point]"
O=[N+]([O-])c1ccc(N/N=C2\CC3CC=CC23)cc1 (centres undefined),39.7%,"29.1 µM [rising, single point]",–
COC(=O)c1ccc(NC(=O)Cc2ccc(F)cc2)cc1,14.3%,–,"0.146 µM [rising, full curve, poor fit]"
c1ccc(-c2nc3ccccc3[nH]2)nc1,6.45%,–,"0.00461 µM [rising, full curve, poor fit]"
Cc1cccc(N2CCN(C(=O)c3c(-c4ccccc4)noc3C)CC2)c1C,-4.11%,–,"29.1 µM [falling, single point]"
O=C(CCn1nc(-c2ccccc2)c2ccccc2c1=O)NCC1CCCO1 (centres undefined),1.4%,–,–
Cc1nc(SCC(=O)Nc2nnc(C(C)C)s2)n[nH]1,21%,–,–
Cc1c(C(=O)NCC2CCCO2)oc2c(Cl)cccc12 (centres undefined),–,–,"6.51 µM [rising, single point]"
O=C(NCCO)c1cccc(Nc2nc(-c3ccccc3)c3cc(Cl)ccc3n2)c1,-23.4%,–,"29.1 µM [falling, single point]"
COC(=O)c1cc2ccc(OC)c(OC)c2c(=O)s1,148%,–,"2.06 µM [rising, partial curve]"
COC(=O)c1ccc(COC(=O)CNC(=O)c2ccco2)cc1,-5.73%,–,"0.259 µM [falling, partial curve, poor fit]"
COc1cccc(-c2nc(CS(=O)CC(=O)NC3CC3)c(C)o2)c1 (centres undefined),12.9%,–,"4.11 µM [rising, partial curve]"
C=CCn1c(SCC(=O)NCc2ccco2)nnc1-c1ccc2ccccc2n1,-10.8%,–,–
O=C1SC(SC(=Nc2ccccc2)Nc2ccccc2)C(=O)N1c1ccccc1 (centres undefined),-25.7%,"4.11 µM [falling, full curve, poor fit]","4.11 µM [falling, full curve, poor fit]"
O=C(O)c1cc2n(n1)C(C(F)(F)F)CC(c1ccco1)N2 (centres undefined),-10.3%,–,"29.1 µM [falling, single point]"
CCc1cccc2c1NC(=O)[C@]21[C@@H]2C(=O)N(Cc3ccccc3)C(=O)[C@@H]2[C@@H]2CCCN21,8.29%,–,"20.6 µM [falling, partial curve]"
O=C(Nn1c(C2CC2)nc2ccccc2c1=O)c1ccco1,–,–,"6.51 µM [falling, single point]"
Cc1[nH]c2ccccc2c1C(=O)CSC(=S)N(C)C,–,–,"0.291 µM [rising, partial curve, poor fit]"
